Experimental data: PubChem BioAssay AID1117319 (Southern Research Institute, 2015)
Where “and” joins values, the source holds several entries; their conditions need not be identical. Equal entries are not always repeated. The campaign covered roughly 260,000 compounds. About 1,500 (0.58%) were called active. Inconclusive results, whose numbers are uncertain, are shown with a selection of clear calls.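 How the source made its calls: active means inhibition above a set limit at one or more doses, reproduced on every date tested; inconclusive means results disagree between test dates, or hit never tested in dose response; inactive means the rest.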

Amino acid sequences for entries named in this document (tags omitted). A change or cut given only in a name is not applied to a line headed by its entry.
UniProt P69720: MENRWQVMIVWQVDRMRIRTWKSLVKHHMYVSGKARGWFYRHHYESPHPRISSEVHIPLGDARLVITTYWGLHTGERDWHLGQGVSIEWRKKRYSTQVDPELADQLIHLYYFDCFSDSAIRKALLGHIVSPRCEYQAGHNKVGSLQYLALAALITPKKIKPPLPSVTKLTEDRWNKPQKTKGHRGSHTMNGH
UniProt P69721: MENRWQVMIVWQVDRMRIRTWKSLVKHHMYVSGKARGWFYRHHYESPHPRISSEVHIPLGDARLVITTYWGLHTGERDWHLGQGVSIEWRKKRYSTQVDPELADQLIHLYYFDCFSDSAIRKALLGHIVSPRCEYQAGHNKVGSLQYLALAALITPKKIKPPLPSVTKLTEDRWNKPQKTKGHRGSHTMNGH
UniProt P69722: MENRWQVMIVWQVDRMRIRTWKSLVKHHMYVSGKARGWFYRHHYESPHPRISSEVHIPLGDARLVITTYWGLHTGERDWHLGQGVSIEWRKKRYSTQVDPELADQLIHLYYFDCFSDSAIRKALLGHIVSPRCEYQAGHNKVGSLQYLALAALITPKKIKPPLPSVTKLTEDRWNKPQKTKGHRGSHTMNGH
UniProt P69723: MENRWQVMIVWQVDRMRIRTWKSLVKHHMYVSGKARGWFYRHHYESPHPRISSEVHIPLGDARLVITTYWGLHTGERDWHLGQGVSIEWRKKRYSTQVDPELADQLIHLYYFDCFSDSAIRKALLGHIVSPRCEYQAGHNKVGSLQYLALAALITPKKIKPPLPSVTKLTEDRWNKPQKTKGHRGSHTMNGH
UniProt Q9HC16: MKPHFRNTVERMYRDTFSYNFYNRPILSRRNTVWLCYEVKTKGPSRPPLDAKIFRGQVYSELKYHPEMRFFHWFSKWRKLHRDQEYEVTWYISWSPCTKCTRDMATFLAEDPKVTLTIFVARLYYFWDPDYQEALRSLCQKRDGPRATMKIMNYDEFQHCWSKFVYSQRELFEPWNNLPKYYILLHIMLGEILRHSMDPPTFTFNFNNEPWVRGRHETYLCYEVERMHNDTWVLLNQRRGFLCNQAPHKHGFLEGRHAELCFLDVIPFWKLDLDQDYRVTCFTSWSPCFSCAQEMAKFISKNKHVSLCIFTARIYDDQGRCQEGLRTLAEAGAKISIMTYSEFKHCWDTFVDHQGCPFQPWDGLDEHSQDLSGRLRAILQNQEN

Each compound was assayed against Virion infectivity factor (Human immunodeficiency virus type 1 group M subtype B (isolate BH10)) + Virion infectivity factor (Human immunodeficiency virus type 1 group M subtype B (isolate BRU/LAI)) + Virion infectivity factor (Human immunodeficiency virus type 1 group M subtype B (isolate PCV12)) + Virion infectivity factor (Human immunodeficiency virus type 1 group M subtype B (isolate HXB2)) + DNA dC->dU-editing enzyme APOBEC-3G (Homo sapiens) (UniProt P69720+P69721+P69722+P69723+Q9HC16) (assay: inhibitors of Vif binding to APOBEC3G peptide, primary screen, biochemical, TR-FRET, GST-Vif 1-94, biotin-A3G peptide, dose response retest (AID 1117319;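 further: Vif residues 1-94 fused to GST binding biotinylated APOBEC3G peptide 110-148; 0% = full assay without inhibitor and 100% = GST in place of GST-Vif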)). Settings: active compounds read high.
In the case of `CCC(C)NC(=O)CNS(=O)(=O)c1ccc(C)cc1` (configuration not stated), the inhibition is reported as inconclusive: 33.2%.
For `O=C(OC(C(=O)NCc1ccco1)c1ccc(Cl)cc1)c1cccs1` (configuration not stated), the inhibition was inactive: 4.09%.
For `CCN1CCN(CC(=O)Nc2nc3ccc(OC)cc3s2)CC1`, the inhibition was inconclusive: 54.7%.
For `CC1CCCN(CCCOc2ccccc2-c2ccccc2)C1` (configuration not stated), the inhibition was inconclusive: 43.3%.
`COc1cc(C(=O)N2CCC(n3cnc4cc(F)ccc43)CC2)cc(OC)c1OC` was tested, and the inhibition was inconclusive: 18.6%.
With `CCNC(=O)CN(c1ccc(CC)cc1)S(C)(=O)=O` the inhibition was inactive: -1.87%.
In the case of `CN(Cc1ccccc1)C(=O)COC(=O)c1cncc(Br)c1`, the inhibition is reported as inconclusive: 34.4%.
For `COc1ccc(/C(O)=C2/C(=O)C(=O)N(Cc3cccnc3)C2c2ccccn2)cc1` (configuration not stated), the inhibition was inconclusive: 42.1%.
For `COc1ccc(NC(=O)CSc2nnc(-c3ccncc3)n2C)cc1`, the inhibition was inconclusive: 36.5%.
In the case of `O=C(/C=C/c1ccco1)Nc1ccc(S(=O)(=O)N2CCOCC2)cc1`, the inhibition is reported as inconclusive: 35.3%.
`COc1ccc(CNC(=O)COC(=O)c2cc(-c3ccco3)nc3ccccc23)cc1` was tested, and the inhibition was inconclusive: 50.2%.
With `CCOC(=O)c1sc(Nc2ccc(C)cc2C)nc1C` the inhibition was inconclusive: 45.8%.
`CCCn1c(C)cc(C(=O)CSc2nc3ccccc3c(=O)n2Cc2ccco2)c1C` was tested, and the inhibition was inconclusive: 44.6%.
`COc1ccc(CC(=O)N/N=C/C=C/c2ccc3c(c2)OCO3)cc1OC` was tested, and the inhibition was inconclusive: 40.2%.
For `O=c1c2ccccc2nc2n1CC/C2=C\c1ccccc1[N+](=O)[O-]`, the inhibition was inconclusive: 33.3%.
With `Cc1c(Cl)cccc1N(CC(=O)NC(C)c1ccccc1)S(C)(=O)=O` (configuration not stated) the inhibition was inconclusive: 35.7%.
`COc1cc(C(=O)Nc2ccc(NC(C)=O)cc2)ccc1OCc1ccccc1` was tested, and the inhibition was inconclusive: 51.1%.
`CN1CCN(c2nc(-c3ccccn3)nc3ccccc23)CC1` was tested, and the inhibition was inconclusive: 45.9%.
`CC(C)OC(=O)CC(=O)c1sc2nc3c(cc2c1N)CN(C)CC3` was tested, and the inhibition was inconclusive: 57.5%.
`COc1ccc2c(c1)C1C=CCC1C(c1cc3c(cc1Br)OCO3)N2` (configuration not stated) was tested, and the inhibition was inconclusive: 50.5%.
`CC(C)C1Nc2c(O)cc(Cl)c([N+](=O)[O-])c2C2C=CCC21` (configuration not stated) was tested, and the inhibition was inconclusive: 56.5%.
With `O=C(NC1CCCc2ccccc21)C1CCN(C(=O)c2sccc2-n2cccc2)CC1` (configuration not stated) the inhibition was inconclusive: 34.8%.
`COc1ccc(-c2c(C#N)cnc(C)c2C)c(O)c1OC` was tested, and the inhibition was inactive: -2.84%.
For `COC1C=COC2(C)Oc3c(C)c(O)c4c(O)c(c(CN5CCN(C)CC5)c(O)c4c3C2=O)NC(=O)C(C)=CC=CC(C)C(O)C(C)C(O)C(C)C(OC(C)=O)C1C` (configuration not stated), the inhibition was inactive: 13.7%.
In the case of `Cc1ccc(S(=O)(=O)NCCC(=O)NC2CCCC2)cc1`, the inhibition is reported as inconclusive: 35.2%.
With `O=C(O)CC1S/C(=N\N=C/c2ccccc2)N(c2ccc(O)cc2)C1=O` (configuration not stated) the inhibition was inconclusive: 40.8%.
With `C#CCN(C[C@H]1[C@H](OC(=O)Nc2c(C)noc2C)[C@H](OC(=O)Nc2c(C)noc2C)C[C@@H](C(=O)OC)[C@H]1C(=O)OC)S(=O)(=O)c1ccc(C)cc1` the inhibition was inactive: 1.23%.
With `Nc1nc(N2CCOCC2)nc2ccccc12` the inhibition was inconclusive: 42.6%.
With `CCCCCc1nc2sc3c(c2c(=O)n1N)CCC3` the inhibition was inconclusive: 52.1%.
For `O=C(NCCc1ccccc1)C1CCN(S(=O)(=O)c2ccc(Br)s2)CC1`, the inhibition was inconclusive: 46.2%.
For `O=C1c2ccccc2C(=O)N1CCCCN(C(=O)c1cc([N+](=O)[O-])cc([N+](=O)[O-])c1)c1ccc(Cl)cc1`, the inhibition was inconclusive: 42.6%.
For `COc1ccc(S(=O)(=O)N(Cc2nc3ccccc3c(=O)[nH]2)C2CCCC2)cc1`, the inhibition was inconclusive: 37.1%.
In the case of `Cc1ccc(S(=O)(=O)N2CCC[C@H]2C(=O)OCCN2C(=O)c3ccccc3C2=O)cc1`, the inhibition is reported as inactive: -7.91%.
`CCC(=O)OCc1c(C(F)(F)F)nn(C)c1Sc1ccc(F)cc1` was tested, and the inhibition was inconclusive: 45.8%.
With `COc1ccc(/C=C/C(=O)OCC(=O)N2CC(=O)Nc3ccccc32)cc1S(=O)(=O)N1CCOCC1` the inhibition was inconclusive: 33.3%.
`CC(=O)Nc1ccc(Nc2nc3ccccc3nc2NS(=O)(=O)c2ccccc2)cc1` was tested, and the inhibition was inactive: 17.2%.
With `CC(CCc1ccco1)NC(=O)CSc1cc(=O)n(C)c2ccccc12` (configuration not stated) the inhibition was inconclusive: 34.9%.
With `CCN(CC)CCN(C(=O)c1ccc(N2C(=O)CCC2=O)cc1)c1nc2cc3c(cc2s1)OCO3` the inhibition was inconclusive: 42%.
With `Nc1cccc2[nH]c(C(F)(F)F)nc12` the inhibition was inconclusive: 34%.
`CCC(C)c1ccc(NC(=S)NC(C)C2CCCO2)cc1` (configuration not stated) was tested, and the inhibition was inconclusive: 35.6%.
In the case of `CC1NC(=O)NC1CCCCCC(=O)Nc1ccc(F)c(Cl)c1` (configuration not stated), the inhibition is reported as inactive: -8.82%.
With `O=C(CSc1ncc(-c2ccc(F)cc2)[nH]1)NCc1ccco1` the inhibition was inconclusive: 37.7%.
For `Cc1cc(O)c(C(C)C)cc1NS(=O)(=O)c1ccccc1`, the inhibition was inconclusive: 37.6%.
For `Clc1ccc(C[n+]2csc3ccccc32)cc1`, the inhibition was inconclusive: 37.9%.
`Cn1c(CNC(=O)c2cccs2)nnc1SCC(=O)Nc1ccc(Cl)cc1` was tested, and the inhibition was inconclusive: 43%.
With `CC1(C)NC(=O)N(CC(=O)NNC(=O)c2ccccc2F)C1=O` the inhibition was inactive: -5.82%.
With `O=C1NC(=Nc2ccccc2Cl)S/C1=C\c1cccc([N+](=O)[O-])c1` the inhibition was inconclusive: 58.5%.
In the case of `O=C(COC(=O)CNC(=O)c1ccc(-c2ccccc2)cc1)NCc1ccco1`, the inhibition is reported as inconclusive: 63.1%.
In the case of `O=c1nc2s/c(=C\c3ccco3)c(=O)n2nc1Cc1ccc(F)cc1`, the inhibition is reported as inactive: 23.6% and inactive: -1.42%.
In the case of `COCCn1c(N)c(C#N)c2nc3ccccc3nc21`, the inhibition is reported as inconclusive: 40.7%.
In the case of `O=C(CCCCCNC(=S)Nc1ccccc1)C[N+](=O)[O-]`, the inhibition is reported as inconclusive: 48%.
With `COc1ccccc1N/N=C/c1ccc2c(c1)OCO2` the inhibition was inconclusive: 59.3%.
For `CS(=O)(=O)N1CCC(Oc2ccccc2C(=O)N2CCNC(=O)C2)CC1`, the inhibition was inconclusive: 47.4%.
For `COC(=O)CSc1[nH]c2ccc(Br)cc2c1[N+](=O)[O-]`, the inhibition was inconclusive: 53.6%.
In the case of `COc1ccc(NS(=O)(=O)c2ccc(OC)c(NC(=O)CCC3CCCC3)c2)cc1`, the inhibition is reported as inconclusive: 34.3%.
`CC(C)=CCSc1nnc([C@@H](NC(=O)OC(C)(C)C)C(C)C)o1` was tested, and the inhibition was inconclusive: 52.6%.
`Cc1noc(C)c1S(=O)(=O)N1CCC(C(=O)c2ccccc2)CC1` was tested, and the inhibition was inconclusive: 59.3%.
In the case of `Oc1ccc(/C=N/N(c2ccccc2)c2ccccc2)cc1O`, the inhibition is reported as inactive: 26.2%.
In the case of `CCN(CC)CCCOC(=O)C(c1ccccc1)c1ccccc1`, the inhibition is reported as inconclusive: 35%.
`COc1ccc(OC)c(S(=O)(=O)N2CCCCC2C(=O)O)c1` (configuration not stated) was tested, and the inhibition was inconclusive: 40.6%.
`Cc1ccc(C)c(S(=O)(=O)c2c(N)n(/N=C/c3ccco3)c3nc4ccccc4nc23)c1` was tested, and the inhibition was inconclusive: 56.3%.
For `Nc1nc(NCc2ccco2)nc(N2CCOCC2)c1[N+](=O)[O-]`, the inhibition was inconclusive: 50.3%.
`COc1ccc(C(C(=O)NC2CCCCC2)N(C(=O)CCl)c2ccc(C)cc2)cc1` (configuration not stated) was tested, and the inhibition was inconclusive: 39.7%.
For `CCOc1ccc(-n2c(=S)sc3c(=O)[nH]c(SCC(=O)NCc4ccco4)nc32)cc1`, the inhibition was inconclusive: 50.6%.
In the case of `CCOc1cc(C2C3=C(CCCC3=O)N(C)C3=C2C(=O)CCC3)cc(Cl)c1O`, the inhibition is reported as inconclusive: 36.9%.
In the case of `Cc1cccc(C(=O)Nc2cccc(OCC(=O)O)c2)c1`, the inhibition is reported as inconclusive: 38.8%.
For `CCOc1ccc(C2C(C(=O)/C=C/c3ccco3)=C(O)C(=O)N2CCN2CCOCC2)cc1OC` (configuration not stated), the inhibition was inconclusive: 64.5%.
`N#CC1=C(N)C(C#N)(C#N)C(c2cccnc2)C2CCCC=C12` (configuration not stated) was tested, and the inhibition was inconclusive: 37.5%.
For `COC(=O)c1ccc(C(=O)OC)c(NC(=O)COC(=O)C2CCCCC2)c1`, the inhibition was inconclusive: 40.1%.
In the case of `O=C1NC(=O)/C(=C\c2ccc(Sc3ccc(Cl)cc3)o2)N1`, the inhibition is reported as inactive: 21.1%.
For `CC1(C)CC(=O)C(C=NCCCN2CCOCC2)=C(O)C1`, the inhibition was inactive: -5.25%.
For `CN1CCN(c2ccc(S(=O)(=O)N3CCCCC3)cc2NC(=O)c2ccc(F)cc2F)CC1`, the inhibition was inconclusive: 45.1%.
With `Cc1ccc(O)c(N=Cc2sc3ccccc3c2Cl)c1` the inhibition was inconclusive: 37.5%.
For `Cn1nccc1C(=O)N/N=C/c1cccnc1`, the inhibition was inconclusive: 53.8%.
For `Cc1ccc(CC(=O)NCCS(=O)c2ccc(Cl)cc2)cc1` (configuration not stated), the inhibition was inconclusive: 48%.
`COC(=O)c1ccc2c(c1)C(C)(C)C(/C=C/c1ccc(OC)c(OC)c1OC)=[N+]2C` was tested, and the inhibition was inconclusive: 40%.
In the case of `O=C(Nc1cccc(S(=O)(=O)N2CCOCC2)c1)c1cc2ccccc2o1`, the inhibition is reported as inactive: -1.28%.
In the case of `COC(CNC(=O)c1ccc2c(c1)nc(C)n2-c1cccc(F)c1)OC`, the inhibition is reported as inconclusive: 52.7%.
`COc1ccc(Cl)cc1NC(=O)CN(C)C(=O)Cc1ccc2c(c1)CCC2` was tested, and the inhibition was inconclusive: 33.6%.
For `O=C(Cc1cc(=O)[nH][nH]1)N/N=C/c1ccccc1Cl`, the inhibition was inconclusive: 48.4%.
For `O=C(CSc1nccc(=O)[nH]1)NCc1ccc2c(c1)OCO2`, the inhibition was inactive: 3.96%.
For `Cn1c(=O)c(C(=O)CCl)c(N)n(CC2CC2)c1=O`, the inhibition was inconclusive: 48.9%.
In the case of `O=C(Cn1c(=O)sc2ccccc21)NCCOc1ccccc1F`, the inhibition is reported as inconclusive: 34.6%.
In the case of `C=CCSC1=N/C(=C\c2ccc(C)o2)C(=O)S1`, the inhibition is reported as inconclusive: 45.5%.
For `Cc1ccc(C(=O)Nc2cccnc2)cc1S(=O)(=O)N1CCCCC1`, the inhibition was inconclusive: 33%.
With `O=S(=O)(N/N=C/c1ccc(OC2CSC2)cc1)c1ccccc1` the inhibition was inconclusive: 37%.
In the case of `CCc1nnc2n1N=C(c1cccc([N+](=O)[O-])c1)CS2`, the inhibition is reported as inconclusive: 47.4%.
